This experiment has as its target CAR in extracts of HeLaCx43 cells (human (endogenous in HeLa)) (UniProt P78310). The experiment can be described thus: co-IP; CAR precipitated by 20 μg IgG of rabbit 80 (anti-CAR) coupled to agarose beads from 7 mg of protein of HeLaCx43 cells solubilized in 1% Chaps/TBS/5% glycerol pH 7.4; blot with anti-Cx43.

By UniProt entry, the sequences of proteins in these tests, tags left out. Residues count along the entry.
UniProt P78310, residues 20-365: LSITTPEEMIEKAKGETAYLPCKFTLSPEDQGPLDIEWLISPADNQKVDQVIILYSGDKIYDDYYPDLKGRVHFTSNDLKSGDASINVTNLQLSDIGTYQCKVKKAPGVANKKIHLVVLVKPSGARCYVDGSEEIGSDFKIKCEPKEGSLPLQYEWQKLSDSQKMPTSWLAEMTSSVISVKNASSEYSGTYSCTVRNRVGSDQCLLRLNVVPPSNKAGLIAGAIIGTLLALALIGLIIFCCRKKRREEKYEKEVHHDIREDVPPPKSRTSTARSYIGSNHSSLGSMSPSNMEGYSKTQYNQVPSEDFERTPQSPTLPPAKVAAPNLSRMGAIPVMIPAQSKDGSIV
UniProt P23242: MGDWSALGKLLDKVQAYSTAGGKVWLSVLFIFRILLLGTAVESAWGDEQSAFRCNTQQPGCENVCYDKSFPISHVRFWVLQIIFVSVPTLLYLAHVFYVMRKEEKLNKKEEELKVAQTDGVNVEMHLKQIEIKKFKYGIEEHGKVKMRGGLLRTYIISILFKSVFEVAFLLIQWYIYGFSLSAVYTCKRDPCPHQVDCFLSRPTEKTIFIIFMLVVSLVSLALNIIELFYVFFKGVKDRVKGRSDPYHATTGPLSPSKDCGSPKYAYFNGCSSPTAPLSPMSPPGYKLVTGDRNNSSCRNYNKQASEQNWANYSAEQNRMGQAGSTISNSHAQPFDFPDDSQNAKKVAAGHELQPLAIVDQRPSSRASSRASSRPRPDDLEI

In paper PMC9866089 one finds binding data, which are given here for 1 substance.

These are yes or no findings as the source states them, for the method shown. Binding seen in cells or lysates may run through a third protein.

On to “connexin43 stably expressed in HeLa cells (from UniProt P23242 1-382)”, for which the binding entry is recorded as “no binding”.
